Reference: patent publication US20250354115A1, “METHOD FOR PRODUCING STEM CELLS AND METHOD FOR PRODUCING GAMMA DELTA T CELLS” (I Peace, Inc., priority 2022, published 2025)
At least one structure is not confirmed: it was looked up by name or label, or the drawing left a doubt.

Tests used:
γδ T cell receptor (TCR) = experiment: Stimulation of iPS-derived T cell progenitors through the γδ T cell receptor, flow cytometry (Example 5); assay type: cell-based, human; conditions: day 35; HMBPP 0.01 μg/mL to 1 μg/mL or zoledronic acid 5 μmol/L; no marker expression without stimulants; FIG. 11
Protocol: αMEM medium supplemented with a final concentration of 20% FBS and 1% penicillin/streptomycin was prepared as an OP9 cell culture medium.
OP9 cell culture medium supplemented with a final concentration of 100 mmol/L vitamin C, 10 ng/ML IL-7, 10 μg/mL FLT3 ligand, and 10 μg/mL stem cell factor (SCF) was prepared as a differentiation induction medium.
A dish on which OP9 cells were cultured was prepared as the feeder cells. The OP9 cells were cultured in the OP9 medium. Multiple cell clusters of iPS cells were seeded onto the feeder cells, and stem cell medium containing 10 μmol/L Y27632 was added. The cells were cultured for two days. On the second day, the medium was replaced with the OP9 medium supplemented with vitamin C, and the cells were cultured for an additional 12 days. On days 5, 9, and 13, half of the medium was removed from the dish and replaced with fresh OP9 medium supplemented with vitamin C.
During the 14-day culture, the differentiation of iPS cells into hematopoietic progenitor cells was observed. The cells were confirmed to be positive for CD34 and CD43, which are markers of hematopoietic cells. […]
It was confirmed that CD3 and γδ TCR (Vγ9) were expressed on the surface of the cells. […] In the negative control, where no stimulants were added, no marker expression was detected.

[1] = system: Human peripheral blood mononuclear cells; experiment: iPS cell induction from mononuclear cells in zoledronic acid-containing medium with interleukins (Examples 2 and 6); assay type: cell-based

O=P(O)(O)C(O)(Cn1ccnc1)P(=O)(O)O [zoledronic acid]
CD3 and γδ TCR (Vγ9) expression on the surface of the cells (γδ T cell receptor (TCR)): expressed | colonies of iPS cells on Day 14 ([1]; 5 μmol/L zoledronic acid, six interleukin groups, MSRV, MOI 5): multiple colonies | presence of the recombined Vγ9 gene in the iPS cells by PCR and electrophoresis ([1]; iPS cells established in Example 2, FIG. 12): confirmed to possess a recombined Vγ9 gene with the JP gene
